Laboratory results taken from US20230257477A1.
Numbering of substitutions follows the chain as printed. These are yes or no findings as the source states them, for the method shown. Some results given as binding are weak or reduced against the parent protein; the word gives no strength. One block for each binder: values may come before it.

Sequences of proteins named here, by UniProt entry; tags and fusion partners are left off. Residues count along the entry.
UniProt P14209, residues 23-185: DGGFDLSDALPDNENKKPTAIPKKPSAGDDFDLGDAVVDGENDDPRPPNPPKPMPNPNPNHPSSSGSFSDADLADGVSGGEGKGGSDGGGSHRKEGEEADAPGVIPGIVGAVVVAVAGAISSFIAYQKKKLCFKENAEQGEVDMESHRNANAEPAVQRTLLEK

Target: CD99 antigen (Origene, Sku #TP304058) (UniProt P14209)
Experiment: ELISA on coated CD99 antigen (FIG. 4)

- binding: binds
B1: 4C5E2 (antibody, V domains shown)
VH: EVQLEESGGGLVQPKGSLKLSCAASGFTFNTYAMYWVCQAPGKGLKWVARIRSKVNNYATYYADSVKDRFTISRDDSQNMLFLHMNNLKTEDTAIYFCVRDPMDYWGQGISVTVSS
VL: DIVMTQAAPSVPVTPGESVSISCGSSKSLLHSNGNTYLYWFLQRPGQSPQLLIYRVSNLASGVPDRFSGSGSGTAFTLRISRVEAEDVGVYYCMQHLEYPYTFGGGTRLEIK

- binding: binds
B2: 4C5H10 (antibody, V domains shown)
VH: B1 VH with E5V
VL: B1 VL
